Measurements from the supplement of paper PMC12823440, “Inhibitors supercharge kinase turnover through native proteolytic circuits” (Nature, 2025).
Counter-ions that a name gives are not always drawn. Some of the results follow. The calls rarely recur for the same compound in another form.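 In K562 cells expressing nanoluciferase-fused kinases, luminescence was recorded at 4 h intervals between 2 and 18 h, normalized as percent of control with DMSO at 100% and a positive control at 0%. A significant (2 sigma) signal drop marks a time point as decreased. The authors' rule for a hit is not shown and takes in more than the number of time points.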

Amino acid sequences for entries named in this document (tags omitted). A change or cut given only in a name is not applied to a line headed by its entry.
UniProt P48729: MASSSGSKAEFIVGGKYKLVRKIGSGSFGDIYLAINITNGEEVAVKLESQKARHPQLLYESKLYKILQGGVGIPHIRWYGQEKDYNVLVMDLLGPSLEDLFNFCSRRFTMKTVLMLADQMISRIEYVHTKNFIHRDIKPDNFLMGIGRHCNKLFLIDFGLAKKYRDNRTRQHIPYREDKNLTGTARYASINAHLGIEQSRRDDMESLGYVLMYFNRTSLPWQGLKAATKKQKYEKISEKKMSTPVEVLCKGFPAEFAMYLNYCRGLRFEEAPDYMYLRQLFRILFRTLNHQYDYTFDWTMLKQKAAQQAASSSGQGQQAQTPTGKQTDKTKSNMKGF

Target: CSNK1A1 (UniProt P48729)
Experiment: number of time points (of 5) at which kinase-Nluc abundance scored as decreased, DMSO-normalised (count); higher = more persistent destabilization
Conditions: K562; 2-18 h

SMILES	number of time points
COc1cc(S(C)(=O)=O)ccc1Nc1nc2ccc(-c3ccc(NC(=O)[C@H](C)c4ccc(F)cc4)cc3)cn2n1 [Empesertib] (10 µM)	0
CO[C@H]1C[C@@H]2CC[C@@H](C)[C@@](O)(O2)C(=O)C(=O)N2CCCC[C@H]2C(=O)O[C@H]([C@H](C)C[C@@H]2CC[C@@H](O)[C@H](OC)C2)CC(=O)[C@H](C)/C=C(\C)[C@@H](O)[C@@H](OC)C(=O)[C@H](C)C[C@H](C)/C=C/C=C/C=C/1C [Rapamycin] (10 µM)	0
COc1ccc(Cl)cc1NC(=O)Nc1cc(C)nc2ccccc12 (2.5 µM)	0
CNc1nc(Nc2cnn(C3CCN(C4COC4)CC3F)c2Cl)ncc1C(F)(F)F (stereo not drawn) (10 µM)	0
Cc1ccc2nc(NC(=O)CSc3nc4c(c(=O)n3-c3ccccc3)SCC4)sc2c1 (2 µM)	0
Cc1noc(C)c1-c1ccc(-c2cc(C(N)=O)c(NC(N)=O)s2)c(O[C@H]2CCNC2)c1 (10 µM)	0
Fc1ccc(-c2nc(-c3c(F)cccc3F)[nH]c2-c2ccncc2)cc1 (10 µM)	0
C=CC(=O)Nc1ccc(CN(C(=O)Nc2c(Cl)c(OC)cc(OC)c2Cl)c2cc(Nc3ccc(N4CCN(C)CC4)cc3)ncn2)cc1 (10 µM)	0
CCN(CC)c1ccc2cc(C(=O)N3CCN(C(=O)C4=Cc5c(Br)cccc5S4(=O)=O)CC3)c(=O)oc2c1 (2 µM)	0
CN1CCN(c2ccc(Nc3ncc4nc(Nc5ccccc5)n([C@@H]5CCN(S(=O)(=O)C6CC6)C5)c4n3)cc2)CC1 (2.5 µM)	0
COCCOc1ccc(-c2cn(-c3ccccc3)c3nc[nH]c(=O)c23)cc1 (10 µM)	0
CC(C)CC1(O)CCN(C(=O)c2ccc(NS(=O)(=O)c3cccc4nccnc34)cc2)CC1 (10 µM)	0
Cc1cc(Nc2cc(Cl)nc(Oc3ccc([N+](=O)[O-])cc3)n2)n[nH]1 [Autophinib] (2.5 µM)	0
O=C(NCCO)c1ccc2c(c1)nc(Nc1cccc(Cl)c1)c1ccncc12 [CK2 inhibitor 2] (10 µM)	0
COc1ccc(C2CC(c3ccccc3)=NN2c2ccc(S(N)(=O)=O)cc2)cc1 (stereo not drawn) (10 µM)	0
C[C@@H]1O[C@@H](O[C@H]2[C@H](Oc3cc(O)c4c(=O)cc(-c5ccc(O)cc5)oc4c3)O[C@H](CO)[C@@H](O)[C@@H]2O)[C@H](O)[C@H](O)[C@H]1O [Rhoifolin] (10 µM)	0
O=[N+]([O-])c1cc(C(F)(F)F)cc([N+](=O)[O-])c1NNC(=S)Nc1ccc(F)cc1 (10 µM)	0
CCc1cc(O)c(F)cc1-c1ccc2c(-c3nc4c([nH]3)CN(C3CCN(C)CC3)CC4)n[nH]c2c1 [JAK-IN-5 (hydrochloride)] (2 µM)	1
O=C(Nc1cccnc1)c1cc(C(=O)c2c(F)cccc2Br)c[nH]1 (10 µM)	0

Reprinted at random: 3 entries already listed.
SMILES	number of time points
C=CC(=O)Nc1ccc(CN(C(=O)Nc2c(Cl)c(OC)cc(OC)c2Cl)c2cc(Nc3ccc(N4CCN(C)CC4)cc3)ncn2)cc1 (10 µM)	0
O=C(NCCO)c1ccc2c(c1)nc(Nc1cccc(Cl)c1)c1ccncc12 [CK2 inhibitor 2] (10 µM)	0
Cc1ccc2nc(NC(=O)CSc3nc4c(c(=O)n3-c3ccccc3)SCC4)sc2c1 (2 µM)	0

Remaining list, next part.

SMILES	number of time points
COc1ccc2c(c1O)OC(C)(C)c1c-2ccc2c1C(=O)N(c1ccc(C(=O)c3ccccc3)cc1)C2=O [Ampkinone] (10 µM)	0
CC1CCc2nc(N)c(C#N)c(-c3cccnc3)c2C1 (stereo not drawn) (10 µM)	0
COc1cc(F)c(F)c(Nc2ccc(I)cc2F)c1NS(=O)(=O)C1(C[C@H](O)CO)CC1 [Refametinib] (10 µM)	0
Cn1nccc1Nc1nccc(-c2cc3c(s2)C(C)(C)N(CCN2CCOCC2)C3=O)n1 (10 µM)	0
Cc1ccc(-c2c(C(=O)CCl)n(CCCO)c3ncnc(N)c23)cc1 (10 µM)	0
N[C@H](Cc1c[nH]c2ccccc12)C(=O)N/N=C/c1ccc2nccnc2c1 [Rhosin (hydrochloride)] (10 µM)	0
CNCc1ccccc1-c1csc([C@@H](C)Nc2nc(C)nc3cc(OC)c(OC)cc23)c1 (2.5 µM)	0
Cn1cnc(-c2cc3nccc(Oc4ccc(NC(=S)NC(=O)Cc5ccccc5)cc4F)c3s2)c1 [MGCD-265 analog] (10 µM)	0
C=C1C(=O)O[C@@H]2C[C@@]3(C)CCC[C@H](C)C3=C[C@H]12 [Alantolactone] (10 µM)	0
O=C(Nc1ccc(F)cc1F)[C@H](NC(=S)Nc1cc(C(F)(F)F)cc(C(F)(F)F)c1)c1ccccc1 (2.5 µM)	0
Fc1ccc(-c2nc(-c3ccccc3F)[nH]c2-c2ccncc2)cc1 (2.5 µM)	0
Cc1ccc(Oc2nc3cc(-c4ccc5c(ccn5C)c4)c(Cl)cc3[nH]2)cc1C(=O)O (10 µM)	0
COc1ccc([C@H]2c3[nH]c4ccc(Cl)cc4c3CCN2C(=O)Oc2ccc(Cl)cc2)cc1 (2.5 µM)	0
COc1ncc(-c2nc(N3CCOCC3)nc3c(CN4CCC(C(C)(C)O)CC4)cc(F)cc23)cc1NS(C)(=O)=O [Linperlisib] (10 µM)	0
C[C@@H](c1ccc2nccn2c1)n1nnc2ncc(-c3cnn(C)c3)nc21 [Savolitinib] (10 µM)	0
CCn1c(-c2nonc2N)nc2cnc(Oc3cccc(NC(=O)c4ccc(OCCN5CCOCC5)cc4)c3)cc21 (10 µM)	4
COc1ccc(C(=O)Nc2sc3c(c2C(N)=O)CCCC3)cc1OC (10 µM)	0
COc1ccc(CC(=O)Nc2nc3c(s2)CCc2ccccc2-3)cc1OC (10 µM)	0
O=C1Nc2nc(-c3c(O)cccc3OCC3CC3)cc([C@@H]3CCCNC3)c2CO1 [Bay 65-1942 (hydrochloride)] (10 µM)	0
